The source of these data is US20250282824A1 (Stichting VU, priority 2021, published 2025).

The data set is described as follows: general procedure: Fmoc solid-phase peptide synthesis; H-Rink amide ChemMatrix (linear peptides); 2-chlorotrityl chloride resin (cyclic peptides); COMU/Oxyma/DIPEA (manual); PyBOP then HATU with Oxyma/DIPEA (automated). The settings on record: for final HPLC purity / isolated yield: whole synthesis, scale of the general procedure 10-100 umol (linear), 0.1 mmol to 0.5 mmol (cyclic); for final HPLC purity: 210 nm; for cyclisation yield: cyclisation step.

As to “D E L I S F K D E G E Q E βA βA E R D L A D V K S S L V N”, the “final HPLC purity” value was determined as 95% and the isolated yield amounted to 2%.
The matching figures for D S L L V F βA βA V T R N D V: 95% and below 1%.
As for “D S L L V F βA βA V T R N D V A P T L B S V P Q”, the “final HPLC purity” value came out at 90% and the isolated yield is on record as below 1%.
Take G R K K R R Q R R R P Q: the “final HPLC purity” value is reported as above 95% and the isolated yield worked out at 16%.
With V T R N D V p P D S L L V F, the “final HPLC purity” value is listed as above 95%. The substance also gave an isolated yield (run 1) of 5%. Under “run 2”, this substance had an isolated yield of 12%.
[βA V C R N D V p P D S L L C F βA]: the “final HPLC purity” value was above 95%. This substance also yielded an isolated yield (overall) of 8%.
With [βA V T R C D V p P D S C L V F βA], the “final HPLC purity” value came out at 95%. This substance displayed an isolated yield (overall) of 4%.
Turning to “[βA V T R K (F I)D V p P D S L L V F βA]”, the “final HPLC purity” value is on record as above 95%. In addition, the isolated yield (overall) was found to be 4%.
[βA V T R N C V p P D C L L V F βA]: the “final HPLC purity” value is above 95%. The same substance came in with an isolated yield (overall) of 6%.
Consider [βA V T R N D V p P D S L L V F βA], for which the “final HPLC purity” value was above 95%. Under “overall”, this substance showed an isolated yield of 10%.
Turning to [βA V T R N [C V p P D C] L L V F βA], the cyclisation yield runs as follows: (run 1) 38%; (run 2) 37%; (run 3) 60%. For the same substance, the “final HPLC purity” value by setting is: (run 1) above 95%; (run 2) above 95%; (run 3) above 95%; (run 4) 95%; (run 5) above 95%; (run 6) 95%. In addition, the “final HPLC purity” value is given as 95% (run 7) and above 95% (run 8). Besides, the isolated yield is, setting by setting: (overall, run 1) 3%; (overall, run 2) 2%; (overall, run 3) 1%; (overall, run 4) 2%; (overall, run 5) 2%; (overall, run 6) 2%. The same substance came in with an isolated yield (overall, run 7) of 4% and an isolated yield (overall, run 8) of 3%.
For the substance [βA V T R [C D V p P D S C] L V F βA], the cyclisation yield is, setting by setting: (run 1) 17%; (run 2) 14%; (run 3) 45%. In addition, the “final HPLC purity” value is above 95% (run 1); above 95% (run 2); above 95% (run 3); above 95% (run 4); above 95% (run 5); 95% (run 6). In addition, the “final HPLC purity” value is on record as above 95% (run 7) and 86% (run 8). Also, the isolated yield by setting is: (overall, run 1) below 1%; (overall, run 2) 2%; (overall, run 3) 2%; (overall, run 4) 1%; (overall, run 5) 1%; (overall, run 6) 1%. In addition, the isolated yield is, setting by setting: (overall, run 7) 4%; (overall, run 8) below 1%.
For the substance “[βA V T R [S5* D V p P D S S5*] L V F βA]”, the “final HPLC purity” value is reported as around 90%. The same substance gave an isolated yield (overall) below 1%.
Take “[βA V [C R K (F I)D V p P D S L L C] F βA]”: the “final HPLC purity” value is above 95%. For the same substance, the isolated yield (overall) was below 1%.
For the substance [βA V [C R N D V p P D S L L C] F βA], the “final HPLC purity” value is reported as above 95%. For the setting “run 1”, the cyclisation yield worked out at 64%. For the setting “run 2”, this substance yielded a cyclisation yield of 24%. Besides, for the setting “overall, run 1”, the isolated yield was 1%. Besides, under “overall, run 2”, the isolated yield came to 2%. Where the note is “overall, run 3”, the isolated yield is given as 1%. Also, the isolated yield (overall, run 4) is 5%. Under “overall, run 5”, the isolated yield amounted to 2%. The substance further registered an isolated yield (overall, run 6) of 4%.
On to “[βA V [S5* R N D V p P D S L L S5*] F βA]”, for which the “final HPLC purity” value is given as around 90%. Further, where the note is “overall”, the isolated yield is below 1%.
As for “[βA V [S6* R N D V p P D S L L S6*] F βA]”, the “final HPLC purity” value is recorded as around 90%. Also, the isolated yield (overall) is listed as below 1%.
